According to paper doi:10.1101/2022.12.14.520480:
Results are given in words; binding and its absence hold for the method and conditions named. In cells and extracts the contact can be indirect. Some entries that bind do so weakly or less than the wild type. For part of these data: Where a sequence is shown, tags or fusion partners need not be part of it.

Legend:
Test in all cases: co-IP
[1] = biological target: T1, HA-tagged TMEM192 wild type (UniProt Q8IY95)
T1 sequence: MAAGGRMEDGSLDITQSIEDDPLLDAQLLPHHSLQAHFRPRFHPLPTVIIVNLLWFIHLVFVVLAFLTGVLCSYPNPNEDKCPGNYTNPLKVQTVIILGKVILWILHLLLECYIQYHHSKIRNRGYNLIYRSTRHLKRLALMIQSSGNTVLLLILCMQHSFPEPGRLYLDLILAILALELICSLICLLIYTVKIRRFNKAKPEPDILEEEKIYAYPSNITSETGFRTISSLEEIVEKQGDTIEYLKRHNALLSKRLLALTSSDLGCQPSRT

[2] = biological target: T2, Dynamin2 (endogenous) (human (endogenous in HeLa and HEK 293T)) (UniProt P50570)
T2 sequence: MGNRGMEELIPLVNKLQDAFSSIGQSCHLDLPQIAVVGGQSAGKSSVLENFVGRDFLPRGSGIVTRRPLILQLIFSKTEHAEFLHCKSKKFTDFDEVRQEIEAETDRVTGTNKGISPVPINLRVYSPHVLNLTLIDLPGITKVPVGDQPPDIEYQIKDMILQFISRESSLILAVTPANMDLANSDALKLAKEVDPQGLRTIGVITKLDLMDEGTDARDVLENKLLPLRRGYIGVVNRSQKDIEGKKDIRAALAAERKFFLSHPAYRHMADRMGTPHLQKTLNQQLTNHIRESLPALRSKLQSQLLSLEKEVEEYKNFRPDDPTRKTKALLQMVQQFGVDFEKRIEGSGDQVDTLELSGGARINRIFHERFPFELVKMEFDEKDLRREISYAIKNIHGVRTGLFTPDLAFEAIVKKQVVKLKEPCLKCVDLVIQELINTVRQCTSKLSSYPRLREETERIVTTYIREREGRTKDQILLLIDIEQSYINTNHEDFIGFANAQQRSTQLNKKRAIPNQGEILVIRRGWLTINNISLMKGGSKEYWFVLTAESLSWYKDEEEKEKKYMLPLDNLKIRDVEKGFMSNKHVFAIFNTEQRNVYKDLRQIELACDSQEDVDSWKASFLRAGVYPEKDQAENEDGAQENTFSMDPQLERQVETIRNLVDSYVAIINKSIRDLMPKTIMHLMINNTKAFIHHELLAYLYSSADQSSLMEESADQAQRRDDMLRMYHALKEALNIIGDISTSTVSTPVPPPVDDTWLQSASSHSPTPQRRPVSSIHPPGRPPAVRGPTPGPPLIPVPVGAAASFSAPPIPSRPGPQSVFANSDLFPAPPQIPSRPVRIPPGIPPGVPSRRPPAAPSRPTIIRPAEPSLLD

HA-tagged LIMP2 = biological target: T3, HA-tagged LIMP2 (UniProt Q14108)
T3 sequence: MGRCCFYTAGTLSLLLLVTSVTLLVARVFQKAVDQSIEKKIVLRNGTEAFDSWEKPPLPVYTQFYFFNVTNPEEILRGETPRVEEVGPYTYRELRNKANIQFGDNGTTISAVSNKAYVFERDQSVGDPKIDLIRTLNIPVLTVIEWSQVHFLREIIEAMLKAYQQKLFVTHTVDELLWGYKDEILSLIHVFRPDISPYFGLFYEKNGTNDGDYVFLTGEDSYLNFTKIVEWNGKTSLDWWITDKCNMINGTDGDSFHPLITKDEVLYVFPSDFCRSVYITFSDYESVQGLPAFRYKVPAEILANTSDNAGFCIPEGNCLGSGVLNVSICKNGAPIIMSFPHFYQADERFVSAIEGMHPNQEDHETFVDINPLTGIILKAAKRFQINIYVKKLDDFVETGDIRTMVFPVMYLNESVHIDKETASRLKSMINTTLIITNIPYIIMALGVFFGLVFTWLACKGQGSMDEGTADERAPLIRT

Measured: binding

B1: TBC1D15 (endogenous) (protein, UniProt Q8TC07 1-691)
chain: MAAAGVVSGKIIYEQEGVYIHSSCGKTNDQDGLISGILRVLEKDAEVIVDWRPLDDALDSSSILYARKDSSSVVEWTQAPKERGHRGSEHLNSYEAEWDMVNTVSFKRKPHTNGDAPSHRNGKSKWSFLFSLTDLKSIKQNKEGMGWSYLVFCLKDDVVLPALHFHQGDSKLLIESLEKYVVLCESPQDKRTLLVNCQNKSLSQSFENLLDEPAYGLIQAGLLDRRKLLWAIHHWKKIKKDPYTATMIGFSKVTNYIFDSLRGSDPSTHQRPPSEMADFLSDAIPGLKINQQEEPGFEVITRIDLGERPVVQRREPVSLEEWTKNIDSEGRILNVDNMKQMIFRGGLSHALRKQAWKFLLGYFPWDSTKEERTQLQKQKTDEYFRMKLQWKSISQEQEKRNSRLRDYRSLIEKDVNRTDRTNKFYEGQDNPGLILLHDILMTYCMYDFDLGYVQGMSDLLSPLLYVMENEVDAFWCFASYMDQMHQNFEEQMQGMKTQLIQLSTLLRLLDSGFCSYLESQDSGYLYFCFRWLLIRFKREFSFLDILRLWEVMWTELPCTNFHLLLCCAILESEKQQIMEKHYGFNEILKHINELSMKIDVEDILCKAEAISLQMVKCKELPQAVCEILGLQGSEVTTPDSDVGEDENVVMTPCPTSAFQSNALPTLSASGARNDSPTQIPVSSDVCRLTPA
binds: all assays above
